# Library screening results

Sequences of proteins named here, by UniProt entry; tags and fusion partners are left off.
UniProt E9BF75, entry or part of it: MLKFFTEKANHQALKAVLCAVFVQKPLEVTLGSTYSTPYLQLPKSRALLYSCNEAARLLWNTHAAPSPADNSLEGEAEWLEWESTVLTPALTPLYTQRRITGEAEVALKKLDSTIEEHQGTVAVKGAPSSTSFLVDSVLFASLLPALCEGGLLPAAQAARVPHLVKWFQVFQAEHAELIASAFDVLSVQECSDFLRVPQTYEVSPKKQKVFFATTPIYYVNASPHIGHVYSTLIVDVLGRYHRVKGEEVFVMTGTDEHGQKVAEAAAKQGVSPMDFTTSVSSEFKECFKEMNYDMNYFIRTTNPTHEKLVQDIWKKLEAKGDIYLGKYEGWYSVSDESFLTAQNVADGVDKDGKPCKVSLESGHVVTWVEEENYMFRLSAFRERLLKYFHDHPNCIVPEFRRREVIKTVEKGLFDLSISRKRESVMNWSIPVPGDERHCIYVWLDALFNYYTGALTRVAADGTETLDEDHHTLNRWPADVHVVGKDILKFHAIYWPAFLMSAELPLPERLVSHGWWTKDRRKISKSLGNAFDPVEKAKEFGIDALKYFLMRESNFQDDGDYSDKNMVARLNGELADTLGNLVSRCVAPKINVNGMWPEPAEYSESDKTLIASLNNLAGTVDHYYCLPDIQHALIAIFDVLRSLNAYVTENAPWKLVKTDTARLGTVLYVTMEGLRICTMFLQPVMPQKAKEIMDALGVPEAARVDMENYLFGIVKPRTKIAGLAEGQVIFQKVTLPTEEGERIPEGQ

A: 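Assay on Mycobacterium tuberculosis, filed only as a heat shock assay from Cornell; the read-out is not stated. The concentration is filed as 10 mM, unlikely as a test dose, so the dose is not known. Direction is inferred from retests: higher values go with stronger inhibition. Size under these conditions: about 69,000 compounds, about 930 of them at 50% or above in at least one test.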
B: 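Methionyl-tRNA synthetase (putative), Leishmania donovani (UniProt E9BF75). Primary screen of methionyl-tRNA synthetase; the read-out is not stated. The test concentration is not given. The values are filed as inhibition. Of about 68,000 compounds tested this way, about 24 (0.035%) reached 50% or more in at least one test.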
C: 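Whole-cell assay for inhibitors of Mycobacterium tuberculosis growth, labelled Cornell in the record; the read-out is not stated. The concentration is filed as 10 mM, unlikely as a test dose, so the dose is not known. The record gives no direction; compounds strong in two other growth screens of this library score well above the rest, so higher reads as stronger inhibition. About 53,000 compounds were tested under these conditions; 1.7% (about 900) showed 50% or more at least once.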

All values are in %. How 0% and 100% were set is not recorded. Most values in the screen are low, and negative values occur. This is an unselected part of the compounds tested. A dash means the value is not listed here; it may have been measured.

| Compound | A | B | C |
|---|---|---|---|
| `O=C(c1c[nH]c2ncccc12)N(Cc1ccco1)C1CCCC1` | -14.04 | 10.48 | -21.72 |
| `Cn1ccc2c(C(=O)NCCCS(C)(=O)=O)cccc21` | 13.57 | 11.59 | 14.69 |
| `COC[C@@]12CCC[C@@H]1CN(C(=O)CN(C)C)C2` | - | 7.692 | - |
| `[H][C@]12CC[C@@H](Nc3cccnn3)[C@@]1([H])CN(Cc1ccc3cc[nH]c3c1)C2` | -6.522 | - | 13.47 |
| `O=C(O)C(F)(F)F.O=C(c1cnccn1)N1CCCC2(CCN(Cc3ccc(F)cc3)C2)C1` (configuration not stated) | -18.09 | - | 0.02865 |
| `COc1ccc(Cl)cc1CCNC(=O)N(C)CC1CCOC1` (configuration not stated) | -26.83 | 5.753 | - |
| `Cc1ccccc1C(C(=O)N(Cc1cnn(C)c1)CC(C)C)N(C)C` (configuration not stated) | -14.5 | 13.19 | - |
| `CCCNC(=O)Cn1cc(-c2ccccc2)cn1` | 7.427 | 18.06 | - |
| `O=C(Cc1ccc2c(c1)CCCC2)NCCNc1cnccn1` | -6.441 | 23.43 | -31.07 |
| `Cc1cccc(OC(C)C(=O)NCC2(N(C)C)CCCC2)c1` (configuration not stated) | -0.1576 | -1.299 | 30.37 |
| `O=C(CCN1CCC(C(=O)c2cc(F)ccc2F)CC1)NC1CC1` | -9.281 | 19.01 | -1.9 |
| `[H][C@@]12CCN(C(=O)CC(C)C)C[C@@]1([H])O[C@@H](c1nccs1)C2` | -25.28 | - | 29.2 |
| `CC[C@H]1CN(C(=O)c2cnc(CN3CCCC3)s2)CC[C@@]1(C)O` | -16.29 | 5.389 | -17.96 |
| `Cc1sc(NC(=O)CN2CCCC(c3ncc[nH]3)C2)c(C)c1C` (configuration not stated) | -8.446 | 7.453 | - |
| `O=C(CC1CCCC1)N1C[C@@H]2CCN(c3cccnc3)C[C@@H]2C1` | - | 11.78 | - |
| `CN1Cc2cnn(CC3CCCC3)c2C(COCC2CC2)C1` (configuration not stated) | - | -5 | - |
| `Cn1nc(CN2CCCC2)c2c1CN(CC1CC1)CC2.O=C(O)C(F)(F)F.O=C(O)C(F)(F)F` | 7.312 | - | -4.507 |
| `Cc1nc(NC2CCOCC2)cc(C2CCN2S(C)(=O)=O)n1` (configuration not stated) | -4.323 | 12.46 | 9.045 |
| `CCCc1nnc2sc(C3CCS(=O)(=O)CC3)nn12` | 7.342 | -0.2611 | - |
| `CS(=O)(=O)N1CCN(C(=O)C2CSCCC(=O)N2)CC1` (configuration not stated) | -35.94 | 10.06 | -9.3 |
| `CCOC(=O)CN(CC(F)(F)F)C(=O)c1nc(C)n2ccccc12` | -13.63 | 19.76 | 0.6912 |
| `COc1ccc2c(=O)ccn(CC(=O)O)c2c1` | -30.16 | -3.315 | - |
| `COc1cccc(-n2nnc(C(=O)N3CCCC3)c2C)c1` | 31.89 | 7.362 | 21.65 |
| `CCc1nc(CNC2CCCCNC2=O)cs1` (configuration not stated) | 2.289 | 15.85 | 7.626 |
| `O=C(c1ccco1)N1CCc2ncnc(NCc3ccccn3)c2CC1` | 44.89 | 12.54 | 0.3931 |
| `Cc1cc(CNc2ccc3nc(C4CC4)sc3c2)no1` | 12.93 | 10.87 | 18.8 |
| `COCc1ncn(Cc2nc(-c3ccc(OC)cc3F)oc2C)n1` | -9.071 | 5.59 | -34.66 |
| `CC(c1ccncc1)N(CCN(C)C)C(=O)Nc1ccc(Cl)c(Cl)c1` (configuration not stated) | 5.867 | 12.24 | 4.536 |
| `O=C(O)c1cc(S(=O)(=O)Nc2cccc3c2OCCO3)c(Cl)cc1F` | -0.4104 | 11.98 | 10.92 |
| `CC1CN(Cc2cccc(CN)c2)CCO1` (configuration not stated) | -19.84 | 15.33 | - |
| `CC(C)OC(=O)N1C[C@H]2CC[C@@H]1CN(C(=O)c1ccccc1)C2` | - | 14.81 | - |
| `Cc1csc(CNC(=O)NCc2ccc3c(c2)OCCO3)n1` | 19.9 | 11.34 | -22.57 |
| `Cn1cc(CN2CC[C@]3(C[C@H](OCc4ccccn4)CO3)C2)cn1` | -28.95 | 8.934 | 15.97 |
| `Cc1noc(C)c1CN(C)C(=O)c1ccc(C(N)=O)nc1` | 9.207 | 18.86 | -12.09 |
| `Cc1noc(C2CCC3(CCN(C(=O)C4=CCCCC4)CC3)O2)n1` (configuration not stated) | 0.2854 | 15.24 | 9.343 |
| `Cc1nn(C)c(N(C)C)c1CNCc1ccccc1CO` | 1.463 | 24.93 | 1.804 |
| `COCCO[C@H]1CCN(C(=O)c2ccc[nH]2)[C@H]1Cc1ccncc1` | 13.4 | 12.89 | - |
| `Cc1noc(C)c1CC(=O)NCC(C(C)C)N1CCOCC1` (configuration not stated) | -1.425 | 13.52 | 25.76 |
| `Cc1ccccc1C(=O)N1CCC2(CCCN2CCN(C)C)CC1.O=C(O)C(F)(F)F.O=C(O)C(F)(F)F` | 12.9 | - | 10.37 |
| `COc1ccccc1C(C)NC(=O)N1CCN(Cc2ccc(Br)s2)CC1` (configuration not stated) | -22.14 | -7.519 | -6.752 |
| `Cc1nnc(NC(=O)NCc2ccnc(N(C)C)c2)s1` | -35.53 | 26.23 | - |
| `O=C(O)[C@]12CCCN(Cc3ccncc3)[C@@H]1CCN(c1cnccn1)C2` | - | 5.854 | - |
| `CN1CCCC(C(=O)N2CCC(Oc3ccccn3)CC2)C1` (configuration not stated) | -4.304 | 10.07 | 7.305 |
| `Cn1cncc1CN1C[C@@H]2OCCN(c3ncccn3)[C@@H]2C1` | - | 16.83 | - |
| `O=C(c1ccncc1)N1C[C@@H]2CCN(c3cccnc3)C[C@@H]2C1` | - | 14.29 | - |
| `CC(Cn1cccn1)NC(=O)NCCc1cccnc1` (configuration not stated) | -7.583 | 20.67 | - |
| `COc1c(C(=O)N2CCOCC2)cnc2c1c(C)nn2C` | 5.154 | 7.5 | -6.546 |
| `O=C(O)C(F)(F)F.c1cncc(C2CC3(CCN(c4cnccn4)CC3)c3ccccc32)c1` (configuration not stated) | 10.38 | - | 50.88 |
| `O=C1CCCN1CCCC(=O)N1CCCCC1c1ccc(F)cc1` (configuration not stated) | 0.7168 | 9.712 | 14.27 |
| `[H][C@@]12CN(C(=O)c3ccsc3)C[C@]1([H])C(=O)N(Cc1ccc(OC)cc1)C2` | 9.165 | - | 21.52 |
| `COc1ccc(CCN2C(=O)O[C@@H]3CN(C4CCOCC4)C[C@@H]32)cc1` | - | 0.625 | - |
| `COCCC(=O)N1CCC(c2noc3nc(C)cc(C(F)(F)F)c23)CC1` | -4.044 | 14.04 | -5.783 |
| `Cc1ccc(O[C@@H]2C[C@H]3CN(C(=O)Cc4ccccn4)CCN3C2)cc1` | - | 7.463 | - |
| `O=C(CCn1ccccc1=O)N1CCCC(COc2ccc(F)cc2)C1` (configuration not stated) | -16.52 | 14.83 | 10.3 |
| `CC(NC(=O)Cc1cccs1)c1nnc2n1CCCCC2` (configuration not stated) | 7.85 | 5.397 | 9.916 |
| `Cc1ccc(F)c2c1CCCN2CC(=O)NC1CCS(=O)(=O)C1` (configuration not stated) | 5.912 | 21.59 | -9.423 |
| `COc1ccccc1OCC(=O)N1CCN(Cc2noc(C)n2)CC1` | -12.29 | 5.576 | 16.4 |
| `COc1ccc(C2=CCN(C(=O)C3CCCN(C(C)=O)C3)CC2)cc1` (configuration not stated) | 4.528 | 17.04 | 20.73 |
| `CCS(=O)(=O)NCCCNC1CSCCc2ccccc21` (configuration not stated) | 4.156 | 12.54 | 11.38 |
| `Cc1nccn1CCN(C)c1nc(-c2cccnc2)nc2c1CCNC2` | -5.94 | 20.46 | -39.01 |

For reference, 3 entries once more:

- O=C(CCn1ccccc1=O)N1CCCC(COc2ccc(F)cc2)C1 (configuration not stated) | A: -16.52%; B: 14.83%; C: 10.3%
- Cn1ccc2c(C(=O)NCCCS(C)(=O)=O)cccc21 | A: 13.57%; B: 11.59%; C: 14.69%
- Cc1nc(NC2CCOCC2)cc(C2CCN2S(C)(=O)=O)n1 (configuration not stated) | A: -4.323%; B: 12.46%; C: 9.045%

The values are deposited in ChEMBL (CHEMBL3988442, “University of Dundee, Small-Polar-MMV Screening Library” (2021)).